Literature values in patent US6153740A, “cDNA encoding nucleoside transporter” (University of Alberta, priority 1997, dated 2000).
The name of at least one read-out is uncertain.

Conditions: read-out: plasma concentrations (therapeutic range); oral; Melvin et al, 1990; cited from earlier work

In the case of `Cc1cn([C@H]2C[C@H](N=[N+]=[N-])[C@@H](CO)O2)c(=O)[nH]c1=O` [AZT, 3'-azido-3'-deoxythymidine], the concentration is listed as 6 to 10 µM.
